For 1 substance, binding results are on record in publication PMC11721311.

Chains of the proteins cited; added tags and fusions are not shown.
UniProt Q9Y2H1: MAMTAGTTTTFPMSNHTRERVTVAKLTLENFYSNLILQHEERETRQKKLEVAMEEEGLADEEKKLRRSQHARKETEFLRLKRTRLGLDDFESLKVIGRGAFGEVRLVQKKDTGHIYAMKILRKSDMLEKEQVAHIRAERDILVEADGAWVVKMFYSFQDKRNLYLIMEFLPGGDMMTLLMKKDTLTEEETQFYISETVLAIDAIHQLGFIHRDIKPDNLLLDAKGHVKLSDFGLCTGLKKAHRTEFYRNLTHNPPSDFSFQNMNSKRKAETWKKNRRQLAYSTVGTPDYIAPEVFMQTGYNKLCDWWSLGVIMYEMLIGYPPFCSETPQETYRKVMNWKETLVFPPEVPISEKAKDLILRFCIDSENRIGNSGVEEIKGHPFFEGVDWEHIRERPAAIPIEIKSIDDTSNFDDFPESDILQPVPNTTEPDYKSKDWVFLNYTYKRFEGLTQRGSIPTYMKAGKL

These are yes or no findings as the source states them, for the method shown. Binding seen in cells or lysates may run through a third protein. Some results given as binding are weak or reduced against the parent protein; the word gives no strength. Sequences can lack the tags named with a protein.

This experiment addresses T1, ULK1 (UNC-51-like kinase 1), HA-tagged (UniProt O75385).
T1 sequence: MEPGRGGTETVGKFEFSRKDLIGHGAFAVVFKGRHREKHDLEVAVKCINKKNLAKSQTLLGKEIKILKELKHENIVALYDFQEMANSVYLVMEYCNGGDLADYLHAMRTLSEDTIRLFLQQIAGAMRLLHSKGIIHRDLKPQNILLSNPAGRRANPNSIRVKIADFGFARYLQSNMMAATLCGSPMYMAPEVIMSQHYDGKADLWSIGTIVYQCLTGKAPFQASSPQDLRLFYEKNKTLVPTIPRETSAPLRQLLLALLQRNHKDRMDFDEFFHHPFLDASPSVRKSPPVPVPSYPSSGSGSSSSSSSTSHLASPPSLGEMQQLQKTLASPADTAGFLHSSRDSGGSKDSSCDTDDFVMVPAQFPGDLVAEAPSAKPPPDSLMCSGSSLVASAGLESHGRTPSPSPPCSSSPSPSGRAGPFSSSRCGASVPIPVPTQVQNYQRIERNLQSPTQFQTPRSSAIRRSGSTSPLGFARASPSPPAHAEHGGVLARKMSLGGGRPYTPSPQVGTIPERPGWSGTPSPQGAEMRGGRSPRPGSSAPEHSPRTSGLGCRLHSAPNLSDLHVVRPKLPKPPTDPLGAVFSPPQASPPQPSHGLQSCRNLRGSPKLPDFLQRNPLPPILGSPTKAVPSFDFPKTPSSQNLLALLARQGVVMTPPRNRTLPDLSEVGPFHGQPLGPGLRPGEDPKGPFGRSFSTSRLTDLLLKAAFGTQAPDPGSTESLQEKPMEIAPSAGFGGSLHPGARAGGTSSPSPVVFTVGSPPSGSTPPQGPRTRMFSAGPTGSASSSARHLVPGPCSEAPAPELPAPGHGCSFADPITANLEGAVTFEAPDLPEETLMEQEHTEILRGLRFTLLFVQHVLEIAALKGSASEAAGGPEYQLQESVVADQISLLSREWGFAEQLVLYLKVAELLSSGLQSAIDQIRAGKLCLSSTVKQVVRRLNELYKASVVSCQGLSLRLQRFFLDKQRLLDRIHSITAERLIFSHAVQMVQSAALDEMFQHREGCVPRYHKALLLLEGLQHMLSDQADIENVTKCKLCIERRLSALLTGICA
Kind of experiment: co-IP; HeLa cells transfected with ULK1-HA and NDR2-Flag plasmids, 48 hours; lysis buffer with 1 mM PMSF, 1 mM DTT and protease inhibitor cocktail; immunoprecipitation with Flag-tag and HA-tag mouse monoclonal antibodies overnight at 4°C, protein A/G beads 3 hours at 4°C, 5 washes with PBS; Western blot. (In general: A western blot detects proteins with antibodies after separation by electrophoresis.)

Regarding “NDR2 (nuclear Dbf2-related kinase 2), Flag-tagged (from UniProt Q9Y2H1 1-464) (enzyme)”, the binding result is reported as “binds”.
